Experimental data taken from PMC4330359.

Chains of the proteins cited; added tags and fusions are not shown. Residues count along the entry.
UniProt P63015, 4-130 R44Q: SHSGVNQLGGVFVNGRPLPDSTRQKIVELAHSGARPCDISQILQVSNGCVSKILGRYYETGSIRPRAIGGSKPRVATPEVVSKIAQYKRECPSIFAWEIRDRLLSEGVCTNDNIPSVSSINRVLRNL
UniProt P63015, 4-130 G36R: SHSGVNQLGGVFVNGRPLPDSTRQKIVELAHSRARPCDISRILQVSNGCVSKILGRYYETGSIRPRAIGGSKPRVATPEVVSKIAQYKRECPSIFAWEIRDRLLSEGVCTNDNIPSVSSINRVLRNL

Tests used:
Assay in all cases: EMSA
[1] = system: Sox2-HMG long (109 aa) + Pax3-PRD; conditions: cooperativity abolished; EMSA: 10 mM Tris-HCl pH 8.0, 0.1 mg/ml BSA, 50 uM ZnCl2, 100 mM KCl, 10% glycerol, 0.1% IGEPAL CA-630, 2 mM 2-mercaptoethanol, 1-2 h, gel at 4 C, 100-300 nM DNA; recombinant protein; label: 5'-FAM or 5'-Cy5
[2] = system: Sox2-HMG long (109 aa) + Pax2-PRD; conditions: cooperativity abolished; EMSA: 10 mM Tris-HCl pH 8.0, 0.1 mg/ml BSA, 50 uM ZnCl2, 100 mM KCl, 10% glycerol, 0.1% IGEPAL CA-630, 2 mM 2-mercaptoethanol, 1-2 h, gel at 4 C, 100-300 nM DNA; recombinant protein; label: 5'-FAM or 5'-Cy5
[3] = system: Sox2-HMG long (109 aa) + Pax9-PRD; conditions: cooperativity abolished; EMSA: 10 mM Tris-HCl pH 8.0, 0.1 mg/ml BSA, 50 uM ZnCl2, 100 mM KCl, 10% glycerol, 0.1% IGEPAL CA-630, 2 mM 2-mercaptoethanol, 1-2 h, gel at 4 C, 100-300 nM DNA; recombinant protein; label: 5'-FAM or 5'-Cy5
[4] = system: Sox2-HMG long (109 aa) + Pax8-PRD; conditions: cooperativity abolished; EMSA: 10 mM Tris-HCl pH 8.0, 0.1 mg/ml BSA, 50 uM ZnCl2, 100 mM KCl, 10% glycerol, 0.1% IGEPAL CA-630, 2 mM 2-mercaptoethanol, 1-2 h, gel at 4 C, 100-300 nM DNA; recombinant protein; label: 5'-FAM or 5'-Cy5
Pax6-PRD R44Q = Pax6-PRD R44Q (UniProt P63015); conditions: markedly reduced affinity; EMSA: 10 mM Tris-HCl pH 8.0, 0.1 mg/ml BSA, 50 uM ZnCl2, 100 mM KCl, 10% glycerol, 0.1% IGEPAL CA-630, 2 mM 2-mercaptoethanol, 1-2 h, gel at 4 C, 100-300 nM DNA; recombinant protein; label: 5'-FAM or 5'-Cy5
Pax6-PRD G36R = Pax6-PRD G36R (UniProt P63015); conditions: markedly reduced affinity; EMSA: 10 mM Tris-HCl pH 8.0, 0.1 mg/ml BSA, 50 uM ZnCl2, 100 mM KCl, 10% glycerol, 0.1% IGEPAL CA-630, 2 mM 2-mercaptoethanol, 1-2 h, gel at 4 C, 100-300 nM DNA; recombinant protein; label: 5'-FAM or 5'-Cy5

Measured: binding result

AAATATTCATTGTTGATGTTCACGCATCATGGATCC (double strand) [DC5con]
binds more weakly: [1] | [2] | [3] | [4]

AAGCATTTTCACGCATGAGTGCACAG (double strand) [Pax6_xtal]
binds more weakly: Pax6-PRD R44Q | Pax6-PRD G36R

Construct, isoform or probe ends are uncertain for at least one entry. The comparison behind a weaker result is the experiment's own reference, which may not be listed here. For part of these data: At least one verdict was read from the data and is not stated in words by the source.
